B1: RHBDD2 (protein, UniProt Q6NTF9 1-364, looked up)
Rhomboid domain-containing …: MAASGPGCRSWCLCPEVPSATFFTALLSLLVSGPRLFLLQQPLAPSGLTLKSEALRNWQVYRLVTYIFVYENPISLLCGAIIIWRFAGNFERTVGTVRHCFFTVIFAIFSAIIFLSFEAVSSLSKLGEVEDARGFTPVAFAMLGVTTVRSRMRRALVFGMVVPSVLVPWLLLGASWLIPQTSFLSNVCGLSIGLAYGLTYCYSIDLSERVALKLDQTFPFSLMRRISVFKYVSGSSAERRAAQSRKLNPVPGSYPTQSCHPHLSPSHPVSQTQHASGQKLASWPSCTPGHMPTLPPYQPASGLCYVQNHFGPNPTSSSVYPASAGTSLGIQPPTPVNSPGTVYSGALGTPGAAGSKESSRVPMP
B2: SLC38A2 (protein, UniProt Q96QD8 1-506, looked up)
Sodium-coupled neutral amino …: MKKAEMGRFSISPDEDSSSYSSNSDFNYSYPTKQAALKSHYADVDPENQNFLLESNLGKKKYETEFHPGTTSFGMSVFNLSNAIVGSGILGLSYAMANTGIALFIILLTFVSIFSLYSVHLLLKTANEGGSLLYEQLGYKAFGLVGKLAASGSITMQNIGAMSSYLFIVKYELPLVIQALTNIEDKTGLWYLNGNYLVLLVSLVVILPLSLFRNLGYLGYTSGLSLLCMVFFLIVVICKKFQVPCPVEAALIINETINTTLTQPTALVPALSHNVTENDSCRPHYFIFNSQTVYAVPILIFSFVCHPAVLPIYEELKDRSRRRMMNVSKISFFAMFLMYLLAALFGYLTFYEHVESELLHTYSSILGTDILLLIVRLAVLMAVTLTVPVVIFPIRSSVTHLLCASKDFSWWRHSLITVSILAFTNLLVIFVPTIRDIFGFIGASAASMLIFILPSAFYIKLVKKEPMKSVQKIGALFFLLSGVLVMTGSMALIVLDWVHNAPGGGH
B3: METTL7A (protein, UniProt Q9H8H3 30-244, looked up)
Thiol S-methyltransferase …: WICKKWFPYFLVRFTVIYNEQMASKKRELFSNLQEFAGPSGKLSLLEVGCGTGANFKFYPPGCRVTCIDPNPNFEKFLIKSIAENRHLQFERFVVAAGENMHQVADGSVDVVVCTLVLCSVKNQERILREVCRVLRPGGAFYFMEHVAAECSTWNYFWQQVLDPAWHLLFDGCNLTRESWKALERASFSKLKLQHIQAPLSWELVRPHIYGYAVK
B4: EXD2 (protein, UniProt Q9NVH0 1-621, looked up)
Exonuclease 3'-5' …: MSRQNLVALTVTTLLGVAVGGFVLWKGIQRRRRSKTSPVTQQPQQKVLGSRELPPPEDDQLHSSAPRSSWKERILKAKVVTVSQEAEWDQIEPLLRSELEDFPVLGIDCEWVNLEGKASPLSLLQMASPSGLCVLVRLPKLICGGKTLPRTLLDILADGTILKVGVGCSEDASKLLQDYGLVVRGCLDLRYLAMRQRNNLLCNGLSLKSLAETVLNFPLDKSLLLRCSNWDAETLTEDQVIYAARDAQISVALFLHLLGYPFSRNSPGEKNDDHSSWRKVLEKCQGVVDIPFRSKGMSRLGEEVNGEATESQQKPRNKKSKMDGMVPGNHQGRDPRKHKRKPLGVGYSARKSPLYDNCFLHAPDGQPLCTCDRRKAQWYLDKGIGELVSEEPFVVKLRFEPAGRPESPGDYYLMVKENLCVVCGKRDSYIRKNVIPHEYRKHFPIEMKDHNSHDVLLLCTSCHAISNYYDNHLKQQLAKEFQAPIGSEEGLRLLEDPERRQVRSGARALLNAESLPTQRKEELLQALREFYNTDVVTEEMLQEAASLETRISNENYVPHGLKVVQCHSQGGLRSLMQLESRWRQHFLDSMQPKHLPQQWSVDHNHQKLLRKFGEDLPIQLS
B5: TFB2M (protein, UniProt Q9H5Q4 20-396, looked up)
Dimethyladenosine transferase …: AGRFCILGSEAATRKHLPARNHCGLSDSSPQLWPEPDFRNPPRKASKASLDFKRYVTDRRLAETLAQIYLGKPSRPPHLLLECNPGPGILTQALLEAGAKVVALESDKTFIPHLESLGKNLDGKLRVIHCDFFKLDPRSGGVIKPPAMSSRGLFKNLGIEAVPWTADIPLKVVGMFPSRGEKRALWKLAYDLYSCTSIYKFGRIEVNMFIGEKEFQKLMADPGNPDLYHVLSVIWQLACEIKVLHMEPWSSFDIYTRKGPLENPKRRELLDQLQQKLYLIQMIPRQNLFTKNLTPMNYNIFFHLLKHCFGRRSATVIDHLRSLTPLDARDILMQIGKQEDEKVVNMHPQDFKTLFETIERSKDCAYKWLYDETLEDR
B6: MFN1 (protein, UniProt Q8IWA4 1-741, looked up)
Mitofusin-1: MAEPVSPLKHFVLAKKAITAIFDQLLEFVTEGSHFVEATYKNPELDRIATEDDLVEMQGYKDKLSIIGEVLSRRHMKVAFFGRTSSGKSSVINAMLWDKVLPSGIGHITNCFLSVEGTDGDKAYLMTEGSDEKKSVKTVNQLAHALHMDKDLKAGCLVRVFWPKAKCALLRDDLVLVDSPGTDVTTELDSWIDKFCLDADVFVLVANSESTLMNTEKHFFHKVNERLSKPNIFILNNRWDASASEPEYMEDVRRQHMERCLHFLVEELKVVNALEAQNRIFFVSAKEVLSARKQKAQGMPESGVALAEGFHARLQEFQNFEQIFEECISQSAVKTKFEQHTIRAKQILATVKNIMDSVNLAAEDKRHYSVEEREDQIDRLDFIRNQMNLLTLDVKKKIKEVTEEVANKVSCAMTDEICRLSVLVDEFCSEFHPNPDVLKIYKSELNKHIEDGMGRNLADRCTDEVNALVLQTQQEIIENLKPLLPAGIQDKLHTLIPCKKFDLSYNLNYHKLCSDFQEDIVFRFSLGWSSLVHRFLGPRNAQRVLLGLSEPIFQLPRSLASTPTAPTTPATPDNASQEELMITLVTGLASVTSRTSMGIIIVGGVIWKTIGWKLLSVSLTMYGALYLYERLSWTTHAKERAFKQQFVNYATEKLRMIVSSTSANCSHQVKQQIATTFARLCQQVDITQKQLEEEIARLPKEIDQLEKIQNNSKLLRNKAVQLENELENFTKQFLPSSNEES
B7: TMED5 (protein, UniProt Q9Y3A6 28-229, looked up)
Transmembrane emp24 …: FTPSLDSDFTFTLPAGQKECFYQPMPLKASLEIEYQVLDGAGLDIDFHLASPEGKTLVFEQRKSDGVHTVETEVGDYMFCFDNTFSTISEKVIFFELILDNMGEQAQEQEDWKKYITGTDILDMKLEDILESINSIKSRLSKSGHIQTLLRAFEARDRNIQESNFDRVNFWSMVNLVVMVVVSAIQVYMLKSLFEDKRKSRT
B8: RDH13 (protein, UniProt Q8NBN7 2-331, looked up)
Retinol dehydrogenase 13: SRYLLPLSALGTVAGAAVLLKDYVTGGACPSKATIPGKTVIVTGANTGIGKQTALELARRGGNIILACRDMEKCEAAAKDIRGETLNHHVNARHLDLASLKSIREFAAKIIEEEERVDILINNAGVMRCPHWTTEDGFEMQFGVNHLGHFLLTNLLLDKLKASAPSRIINLSSLAHVAGHIDFDDLNWQTRKYNTKAAYCQSKLAIVLFTKELSRRLQGSGVTVNALHPGVARTELGRHTGIHGSTFSSTTLGPIFWLLVKSPELAAQPSTYLAVAEELADVSGKYFDGLKQKAPAPEAEDEEVARRLWAESARLVGLEAPSVREQPLPR
B9: IARS (protein, UniProt P41252 1-1262, looked up)
Isoleucine--tRNA ligase, …: MLQQVPENINFPAEEEKILEFWTEFNCFQECLKQSKHKPKFTFYDGPPFATGLPHYGHILAGTIKDIVTRYAHQSGFHVDRRFGWDCHGLPVEYEIDKTLGIRGPEDVAKMGITEYNNQCRAIVMRYSAEWKSTVSRLGRWIDFDNDYKTLYPQFMESVWWVFKQLYDKGLVYRGVKVMPFSTACNTPLSNFESHQNYKDVQDPSVFVTFPLEEDETVSLVAWTTTPWTLPSNLAVCVNPEMQYVKIKDVARGRLLILMEARLSALYKLESDYEILERFPGAYLKGKKYRPLFDYFLKCKENGAFTVLVDNYVKEEEGTGVVHQAPYFGAEDYRVCMDFNIIRKDSLPVCPVDASGCFTTEVTDFAGQYVKDADKSIIRTLKEQGRLLVATTFTHSYPFCWRSDTPLIYKAVPSWFVRVENMVDQLLRNNDLCYWVPELVREKRFGNWLKDARDWTISRNRYWGTPIPLWVSDDFEEVVCIGSVAELEELSGAKISDLHRESVDHLTIPSRCGKGSLHRISEVFDCWFESGSMPYAQVHYPFENKREFEDAFPADFIAEGIDQTRGWFYTLLVLATALFGQPPFKNVIVNGLVLASDGQKMSKRKKNYPDPVSIIQKYGADALRLYLINSPVVRAENLRFKEEGVRDVLKDVLLPWYNAYRFLIQNVLRLQKEEEIEFLYNENTVRESPNITDRWILSFMQSLIGFFETEMAAYRLYTVVPRLVKFVDILTNWYVRMNRRRLKGENGMEDCVMALETLFSVLLSLCRLMAPYTPFLTELMYQNLKVLIDPVSVQDKDTLSIHYLMLPRVREELIDKKTESAVSQMQSVIELGRVIRDRKTIPIKYPLKEIVVIHQDPEALKDIKSLEKYIIEELNVRKVTLSTDKNKYGIRLRAEPDHMVLGKRLKGAFKAVMTSIKQLSSEELEQFQKTGTIVVEGHELHDEDIRLMYTFDQATGGTAQFEAHSDAQALVLLDVTPDQSMVDEGMAREVINRIQKLRKKCNLVPTDEITVYYKAKSEGTYLNSVIESHTEFIFTTIKAPLKPYPVSPSDKVLIQEKTQLKGSELEITLTRGSSLPGPACAYVNLNICANGSEQGGVLLLENPKGDNRLDLLKLKSVVTSIFGVKNTELAVFHDETEIQNQTDLLSLSGKTLCVTAGSAPSLINSSSTLLCQYINLQLLNAKPQECLMGTVGTLLLENPLGQNGLTHQGLLYEAAKVFGLRSRKLKLFLNETQTQEITEDIPVKTLNMKTVYVSVLPTTADF

The molecules below were run on BAF complex subunits and histone proteins (assay: Mass spectrometry proteomics of purified HA-SS18 WT and HA-SS18-SSX1 complexes (Tables 5A-5E)). Details: HA-SS18SSX1_NE_peptides: protein co-purified with HA-SS18-SSX1 BAF complexes from soluble nuclear extract (NE), HEK-293T cells.
Set-up: species or system human

Molecule | Total (peptides) | Unique (peptides)
B1 | 1 | 1
B2 | 1 | 1
B3 | 1 | 1
B4 | 1 | 1
B5 | 1 | 1
B6 | 1 | 1
B7 | 1 | 1
B8 | 1 | 1
B9 | 1 | 1

Same assay, conditions: HA-SS18WT_NE_peptides: proteins co-purified with HA-SS18 WT from nuclear extract (NE), HEK-293T

Molecule | Total (peptides) | Unique (peptides)
B1 | 1 | 1
B2 | 1 | 1
B4 | 2 | 2
B5 | 1 | 1
B6 | 1 | 1
B7 | 1 | 1
B8 | 1 | 1
B9 | 2 | 1

From US20250283871A1, “COMPOSITIONS AND METHODS FOR MODULATING THE INTERACTION BETWEEN SS18-SSX FUSION ONCOPROTEIN AND NUCLEOSOMES” (Dana-Farber Cancer Institute, Inc., priority 2020, published 2025)
